Paper PMC8245078, “Development of novel benzofuran-isatin conjugates as potential antiproliferative agents with apoptosis inducing mechanism in Colon cancer” (Journal of Enzyme Inhibition and Medicinal Chemistry, 2021)

Each compound was assayed on NCI-55 cancer cell line panel (assay: NCI single dose screening (10 µM), whole panel). Settings: number of cell lines with GI % higher than 10%, single dose 10^−5 M.
Type: cell-based, human

Compound | Sensitive cell lines no.
Cc1c(C(=O)N/N=C2\C(=O)Nc3ccc(Br)cc32)oc2ccccc12 [Compound 5c] | 40
CCCN1C(=O)/C(=N\NC(=O)c2oc3ccccc3c2C)c2cc(Br)ccc21 [Compound 7g] | 6
COc1ccc2c(c1)/C(=N/NC(=O)c1oc3ccccc3c1C)C(=O)N2 [Compound 5d] | 54
Cc1c(C(=O)N/N=C2\C(=O)N(Cc3ccccc3)c3ccccc32)oc2ccccc12 [Compound 7d] | 20
Cc1c(C(=O)N/N=C2\C(=O)Nc3ccc(F)cc32)oc2ccccc12 [Compound 5b] | 9
CCCN1C(=O)/C(=N\NC(=O)c2oc3ccccc3c2C)c2ccccc21 [Compound 7b] | 19
Cc1c(C(=O)N/N=C2\C(=O)N(C)c3ccccc32)oc2ccccc12 [Compound 7a] | 7
